PubChem BioAssay AID1259254, NCATS | 2017
In all, the deposit lists about 59,000 reagents; this is a part drawn at random. About 1,550 of them (2.6%) were called active. 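G2 share is only a proxy for re-replication; each gene was hit by three separate siRNAs, and active genes were retested.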 The raw values are shown without normalisation. The numbers tell different reagents against one gene apart. Not stated in the record: the amount of reagent.

Screen: 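Finding genes that stop cells copying their DNA twice in one cycle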 (primary screen)
Cells: human HCT116 colorectal cancer cells
Reagents: single siRNA against human genes
Timing: 3 days
Detection: 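Nuclei stained with Hoechst and imaged; cell-cycle phase assigned by DNA content; G2 share scaled per plate, non-targeting siRNA 0%, GMNN siRNA 100%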
Scale: G2 robust z-score and G2 cells, % of GMNN control: higher = more G2 cells, more excess DNA replication; raw share of cells in G2: higher = larger share of cells with G2 DNA content
Active means: 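Active siRNAs have a G2 robust z of 5 or more median absolute deviations over the median, which in these data means about 38% or higher of GMNN control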

gene,reagent,G2 robust z-score,"G2 cells, % of GMNN control",raw share of cells in G2 (%),outcome
DCAF4,1,-0.183,1.68,5.04,inactive
DCAF4,2,1.13,10.9,8.68,inactive
DCAF4,3,-0.933,-3.59,2.04,inactive
RARG,1,2.62,21.4,12.9,inactive
RARG,2,-0.787,-2.57,3.67,inactive
RARG,3,-1.21,-5.52,2.13,inactive
SCML2,1,-0.7,-1.96,4.84,inactive
SCML2,2,3.1,24.8,11.9,inactive
SCML2,3,3.43,27.1,17.2,inactive
BBLN,1,-0.0839,2.38,3.33,inactive
BBLN,2,4.4,33.9,19.4,inactive
BBLN,3,-0.402,0.138,4.67,inactive
POLR2J3,1,3.8,29.7,18.8,inactive
POLR2J3,2,1.85,16,11.2,inactive
POLR2J3,3,2.25,18.8,11.1,inactive
NCOA4P4,1,-0.0947,2.3,4.51,inactive
NCOA4P4,2,0.423,5.94,5.67,inactive
NCOA4P4,3,-0.687,-1.86,2.49,inactive
PASD1,1,1.49,13.5,9.25,inactive
PASD1,2,-0.154,1.88,3.7,inactive
PASD1,3,-0.449,-0.19,2.51,inactive
GLIPR1L1,1,1.08,10.6,7.41,inactive
GLIPR1L1,2,0.501,6.49,5.35,inactive
GLIPR1L1,3,0.494,6.44,5.25,inactive
GJB3,1,0.225,4.55,5.27,inactive
GJB3,2,0.145,3.99,6.71,inactive
GJB3,3,0.0184,3.1,4.23,inactive
AGAP1P1,1,-0.165,1.81,3.68,inactive
AGAP1P1,2,-0.257,1.16,3,inactive
AGAP1P1,3,-0.519,-0.684,3.92,inactive
CYTL1,1,0.186,4.28,5.14,inactive
CYTL1,2,1.01,10,8.5,inactive
CYTL1,3,-0.437,-0.109,3.16,inactive
TRAPPC13,1,-1.05,-4.4,1.17,inactive
TRAPPC13,2,-0.0272,2.78,5.6,inactive
TRAPPC13,3,-0.389,0.233,4.41,inactive
POLR2C,1,1.55,13.8,9.74,inactive
POLR2C,2,1.4,12.8,9.57,inactive
POLR2C,3,1.3,12.1,8.18,inactive
HNRNPR,1,-0.327,0.668,4.06,inactive
HNRNPR,2,0.549,6.83,8.66,inactive
HNRNPR,3,-0.452,-0.214,6.39,inactive
KLHL29,1,-0.173,1.75,4.79,inactive
KLHL29,2,0.508,6.54,5.28,inactive
KLHL29,3,0.106,3.71,2.9,inactive
C6orf118,1,1.67,14.7,7.42,inactive
C6orf118,2,0.472,6.29,5.86,inactive
C6orf118,3,-0.39,0.227,3.03,inactive
NSA2,1,4.33,33.4,20.4,inactive
NSA2,2,1.31,12.2,9.02,inactive
NSA2,3,4.91,37.5,17.1,inactive
RCN2,1,0.201,4.38,5.2,inactive
RCN2,2,-0.402,0.142,4.91,inactive
RCN2,3,0.847,8.93,6.35,inactive
TMEM174,1,-0.0586,2.56,5.14,inactive
TMEM174,2,1.39,12.7,7.14,inactive
TMEM174,3,-0.219,1.42,3.1,inactive
RARS1,1,0.00725,3.02,6.02,inactive
RARS1,2,-0.956,-3.76,3.24,inactive
RARS1,3,-0.659,-1.67,3.59,inactive
TNFRSF17,1,1.14,11,8.45,inactive
TNFRSF17,2,-1.24,-5.79,3.01,inactive
TNFRSF17,3,-1.32,-6.29,1.65,inactive
COX20,1,0.785,8.49,7.5,inactive
COX20,2,-0.491,-0.485,3.19,inactive
COX20,3,-0.54,-0.834,1.57,inactive
LIMA1,1,-0.382,0.28,4.35,inactive
LIMA1,2,-0.058,2.56,4.78,inactive
LIMA1,3,-0.748,-2.29,4.91,inactive
